Among the data in article PMC6199276 are binding values, retold here.

Amino acid sequences for entries named in this document (tags omitted).
UniProt P19484: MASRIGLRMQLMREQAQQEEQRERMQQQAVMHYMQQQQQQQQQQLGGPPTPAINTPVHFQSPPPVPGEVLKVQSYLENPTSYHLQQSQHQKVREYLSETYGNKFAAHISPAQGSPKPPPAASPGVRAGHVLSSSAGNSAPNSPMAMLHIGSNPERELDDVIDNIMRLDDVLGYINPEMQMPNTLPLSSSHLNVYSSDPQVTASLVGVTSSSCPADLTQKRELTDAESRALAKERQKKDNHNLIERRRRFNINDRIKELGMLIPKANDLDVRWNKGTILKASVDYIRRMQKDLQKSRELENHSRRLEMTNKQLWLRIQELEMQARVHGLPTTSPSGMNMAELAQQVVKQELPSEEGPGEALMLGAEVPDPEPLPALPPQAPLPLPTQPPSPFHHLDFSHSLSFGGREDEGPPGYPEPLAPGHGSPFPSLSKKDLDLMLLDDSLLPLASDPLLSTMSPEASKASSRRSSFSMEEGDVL
UniProt Q12778: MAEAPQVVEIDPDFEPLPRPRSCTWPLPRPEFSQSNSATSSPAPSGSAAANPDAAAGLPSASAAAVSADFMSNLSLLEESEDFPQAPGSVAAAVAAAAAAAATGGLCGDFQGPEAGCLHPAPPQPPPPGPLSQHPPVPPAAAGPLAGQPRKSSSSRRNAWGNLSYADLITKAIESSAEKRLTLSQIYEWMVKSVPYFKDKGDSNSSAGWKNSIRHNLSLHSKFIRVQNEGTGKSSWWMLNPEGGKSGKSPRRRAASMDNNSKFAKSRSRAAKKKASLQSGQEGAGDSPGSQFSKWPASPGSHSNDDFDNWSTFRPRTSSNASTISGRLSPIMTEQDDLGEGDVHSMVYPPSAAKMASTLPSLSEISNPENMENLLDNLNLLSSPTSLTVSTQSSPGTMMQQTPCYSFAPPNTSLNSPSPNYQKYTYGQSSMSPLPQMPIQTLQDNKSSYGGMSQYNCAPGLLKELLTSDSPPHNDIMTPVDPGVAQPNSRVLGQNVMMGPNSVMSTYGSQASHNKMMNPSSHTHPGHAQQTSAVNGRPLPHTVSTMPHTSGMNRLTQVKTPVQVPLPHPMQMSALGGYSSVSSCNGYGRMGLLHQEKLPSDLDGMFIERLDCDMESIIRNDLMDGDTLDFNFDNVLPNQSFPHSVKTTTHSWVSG
UniProt O43524: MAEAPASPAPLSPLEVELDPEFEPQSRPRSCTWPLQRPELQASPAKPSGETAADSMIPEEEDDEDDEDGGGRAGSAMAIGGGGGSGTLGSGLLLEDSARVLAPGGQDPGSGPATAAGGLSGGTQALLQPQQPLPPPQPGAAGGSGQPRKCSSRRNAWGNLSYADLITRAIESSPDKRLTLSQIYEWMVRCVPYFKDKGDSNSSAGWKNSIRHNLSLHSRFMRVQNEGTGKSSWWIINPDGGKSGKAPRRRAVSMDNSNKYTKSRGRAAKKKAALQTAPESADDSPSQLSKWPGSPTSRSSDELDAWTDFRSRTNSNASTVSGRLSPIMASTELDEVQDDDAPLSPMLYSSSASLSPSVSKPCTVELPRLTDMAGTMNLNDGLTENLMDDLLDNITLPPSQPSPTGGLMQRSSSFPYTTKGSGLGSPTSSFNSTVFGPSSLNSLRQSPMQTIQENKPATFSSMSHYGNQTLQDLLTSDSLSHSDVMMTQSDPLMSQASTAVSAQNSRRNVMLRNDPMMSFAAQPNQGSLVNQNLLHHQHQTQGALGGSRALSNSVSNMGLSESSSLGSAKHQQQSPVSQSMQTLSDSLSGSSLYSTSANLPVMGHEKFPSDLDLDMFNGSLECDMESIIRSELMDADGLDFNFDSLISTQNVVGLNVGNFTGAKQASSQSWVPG

No constants are given. Whether binding was seen depends on the method and setting. Binding seen in cells or lysates may run through a third protein. Some results given as binding are weak or reduced against the parent protein; the word gives no strength.

The assay has as its target GFP-tagged TFEB (pEGFP-N1-TFEB) (human) (UniProt P19484). Put plainly: co-IP; HEK293T cells transfected with GFP-FOXO1 or pEGFP-N1-TFEB, treated with 20 uM LY294002 for 48 h; GFP-Trap resin; 50 mM HEPES pH 7.4, 150 mM KCl, 0.5% NP-40; western blot anti-GFP, anti-FOXO1, anti-FOXO3A, anti-TFEB. Background: A western blot detects proteins with antibodies after separation by electrophoresis.

With FOXO1 (from UniProt Q12778 1-655), the binding result was “binds”.

In the case of FOXO3 (from UniProt O43524 1-673), the binding entry is given as “no binding”.
